Results are given in words; binding and its absence hold for the method and conditions named. Where a sequence is shown, tags or fusion partners need not be part of it.
Molecular target: human DIO1 (containing selenocysteine), Flag-tagged, expressed in COS7 cells (human) (UniProt P49895)
Assay: SDS-PAGE with Western blot; membrane fractions of COS7 cells; anti-Flag blot; shows only an SDS-stable dimer

B1: human DIO1 (containing selenocysteine), Flag-tagged, expressed in COS7 cells (enzyme, UniProt P49895 1-249)
chain: MGLPQPGLWLKRLWVLLEVAVHVVVGKVLLILFPDRVKRNILAMGEKTGMTRNPHFSHDNWIPTFFSTQYFWFVLKVRWQRLEDTTELGGLAPNCPVVRLSGQRCNIWEFMQGNRPLVLNFGSCTUPSFMFKFDQFKRLIEDFSSIADFLVIYIEEAHASDGWAFKNNMDIRNHQNLQDRLQAAHLLLARSPQCPVVVDTMQNQSSQLYAALPERLYIIQEGRILYKGKSGPWNYNPEEVRAVLEKLHS
modifications: selenocysteine at 126
  binding: no binding
